Earlier results, collected in patent US20140242073A1, “CARTILAGE/BONE D[…]” (priority 2011, published 2014).
For at least one compound, name, drawing or mass did not settle the structure.

Legend:
[1] = system: severe osteoarthritis model; conditions: Eyigor et al. 2006; cited from earlier work
[2] = system: antigen-induced arthritis model; conditions: intra-articular administration, literature; cited from earlier work

For C[C@H]1C[C@@H]2[C@H]([C@@H](O)C[C@@]3(C)[C@H]2CC[C@]3(O)C(=O)CO)[C@@]2(C)C=CC(=O)C=C12 [Steroid, methylprednisolone], the histological improvement effect [1] is listed as “no histological improvement effect”, the Duration [2] is listed as “Short” and the “Histological Improvement” value [2] is listed as “No”. The “Improvement of Cartilage/Bone Destruction” value [2] was “No” and the “Joint Swelling” value [2] was “Ameliorated”.
